# Positions count from the first letter of the chain named. Numbers in names are those of the source. No constants are given. Whether binding was seen depends on the method and setting. Some results given as binding are weak or reduced against the parent protein; the word gives no strength.
# T1: recombinant hIFN-γ receptor (the extracellular part of the IFNGR1) (human) (UniProt P15260)
# T1 sequence (looked up): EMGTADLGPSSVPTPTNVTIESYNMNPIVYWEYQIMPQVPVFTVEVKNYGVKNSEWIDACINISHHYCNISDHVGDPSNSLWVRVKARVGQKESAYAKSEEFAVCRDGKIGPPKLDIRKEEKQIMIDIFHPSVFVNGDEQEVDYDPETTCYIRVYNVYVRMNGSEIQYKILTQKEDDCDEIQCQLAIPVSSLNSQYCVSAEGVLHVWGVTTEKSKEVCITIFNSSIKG
# B1: K88Q (138 aa) (ligand, human, UniProt P01579 24-161, looked up)
# chain: QDPYVKEAENLKKYFNAGHSDVADNGTLFLGILKNWKEESDRKIMQSQIVSFYFKLFKNFKDDQSIQKSVETIKEDMNVKFFNSNKKQRDDFEKLTNYSVTDLNVQRKAIHELIQVMAELSPAAKTGKRKRSQMLFRG
# notes: range 1-138; also called Control 3: K88Q(138 aa); Control 2: K88Q
# B2: anti-gamma mutant protein K88Q_D41N (138 aa) (ligand)
# chain: B1 chain with D41N
# Columns and labels:
# [1] = molecular target: T1, recombinant hIFN-γ receptor (the extracellular part of the IFNGR1) (human); assay: SPR
# [2] = molecular target: T1, recombinant hIFN-γ receptor (the extracellular part of the IFNGR1) (human); assay: ITC
# [3] = molecular target: T1, recombinant hIFN-γ receptor (the extracellular part of the IFNGR1) (human); assay: SPR, summary
Binder,binding [1],binding [2],binding [3]
B1,binds,binds,–
B2,binds,–,binds

# Source: patent EP3381935A1 (Tigo GmbH, dated 2018)
